From the supplement of paper PMC7024190
Some of the results follow. Repeats in this data set agree poorly, so a single value says little.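 A first-round screen of about ten thousand compounds sought those raising reporter output, using human embryonic kidney cells briefly transfected with a plasmid carrying a Renilla luciferase gene driven by the HSV-TK promoter.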

These compounds were tested on HEK 293FT (assay: log relative Renilla luciferase luminescence (reporter expression vs reference, reference not stated) (log (base not stated)); higher = higher recombinant reporter expression). Details: 10 µM; time after transfection 48 h.
Description: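 HEK 293FT cells transiently transfected with pRL-TK (Renilla luciferase) were treated with compounds at 10 uM and luminescence was read about 42 h later. Values are log relative Renilla luminescence (log base and reference not stated). Single-pass screen; 2080 natural products library.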
`C[C@H](C[C@@H](O)[C@@H]1OC1(C)C)[C@@H]1CC[C@]2(C)C3=CC[C@H]4C(C)(C)C(=O)CC[C@]4(C)[C@H]3CC[C@@]12C` [Niloticin] showed a log of 0.0381. `COc1cc([C@H]2OC[C@H]3[C@@H]2CO[C@@H]3c2cc(OC)c(O)c(OC)c2)cc(OC)c1O` (racemic) [DL-Syringaresinol] was tested, and the log was -0.117. `O=C1c2c(O)cc(O)cc2OC1(O)Cc1cc(O)c(O)c(O)c1` (configuration not stated) [Amaronol A] was tested, and the log was 0.0294. In the case of `CC1(C)C=Cc2c(cc3occ(-c4ccc(O)cc4)c(=O)c3c2O)O1` [Alpinumisoflavone], the log is reported as 0.0141. With `CC1=CC(=O)CC(C)(C)[C@@]1(O)/C=C/[C@@H](C)O` [Vomifoliol] the log was -0.273. In the case of `Oc1ccc2c(c1)CN1CC[C@H](O)C1=N2` [Vasicinol], the log is reported as -0.123. In the case of `COc1ccc(C(C)=O)c(O)c1` [Paeonol], the log is reported as -0.276. With `COc1cc(C(=O)OCC2=C[C@@H](O)[C@@H]3C=CO[C@@H](O[C@@H]4O[C@H](CO)[C@@H](O)[C@H](O)[C@H]4O)[C@H]23)ccc1O` [10-O-Vanilloylaucubin] the log was 0.153. `COc1cc(-c2oc3cc(O)c(OC)c(O)c3c(=O)c2OC)ccc1O` [Jaceidin] showed a log of 0.0567. For `CC(C)[C@@H](C)/C=C/[C@@H](C)[C@H]1CC[C@H]2C3=CC[C@H]4C[C@@H](O)CC[C@]4(C)[C@H]3CC[C@]12C` [Stellasterol], the log was 0.0391. `CC1=C[C@H](O)CC(C)(C)[C@H]1/C=C/C(C)=C/C=C/C(C)=C/C=C/C=C(C)/C=C/C=C(C)/C=C/C1=C(C)C[C@@H](O)CC1(C)C` [Lutein] gave a log of 0.143. `CC(=O)O[C@H]1C[C@@H]2CC(=O)OC[C@@H]2[C@H]1C` [Isoboonein acetate] showed a log of -0.172.
